Reference: publication PMC6161111 (Pharmaceuticals, 2018)

Tests used:
[1] = general procedure: Fmoc solid-phase peptide synthesis; Rink amide MBHA resin / Rink amide resin; HBTU; settings: conjugation step
[2] = general procedure: Fmoc solid-phase peptide synthesis; Rink amide MBHA; HBTU; settings: whole synthesis
[3] = general procedure: Fmoc solid-phase peptide synthesis; Rink amide; HBTU; settings: whole synthesis

Row | Substance | conjugation yield [1] | isolated yield [2] | further results
1 | 24a (PESIN scrambled) | 49% | – | –
2 | [Lys^4(aminooxy),Trp^5,Nle^7]BVD15 | – | 35% | –
3 | bombesin | – | – | isolated yield [3]: 22%
4 | [Lys^4,Trp^5,Nle^7]BVD15 | – | – | isolated yield [3]: 40%
5 | 24c (PESIN and [Lys^4,Trp^5,Nle^7]BVD15 scrambled) | 61% | – | –
6 | DOTA-PESIN | – | 7% | –
7 | [Lys^4(aminooxy),Trp^5,Nle^7]BVD15scrambled | – | 20% | –
8 | 24b ([Lys^4,Trp^5,Nle^7]BVD15 scrambled) | 63% | – | –
9 | aminooxy-PESIN | – | 27% | –
10 | [Lys^4(DOTA),Trp^5,Nle^7]BVD15 | – | 45% | –
